Measured values as given in paper PMC8384837.
Numbering of substitutions follows the chain as printed. This is one part of the list. For some assays here: At the low end of the ranking the order means little.

What was measured:
Conditions in all cases: yeast three-hybrid, YBZ-1, SC-Leu-His + 0.5 mM 3-AT, 4 days
[1] = biological target: T1, PUM1 PUF domain R3-DFV C935D + R936F + Q939V (Homo sapiens) (UniProt Q14671)
T1 sequence: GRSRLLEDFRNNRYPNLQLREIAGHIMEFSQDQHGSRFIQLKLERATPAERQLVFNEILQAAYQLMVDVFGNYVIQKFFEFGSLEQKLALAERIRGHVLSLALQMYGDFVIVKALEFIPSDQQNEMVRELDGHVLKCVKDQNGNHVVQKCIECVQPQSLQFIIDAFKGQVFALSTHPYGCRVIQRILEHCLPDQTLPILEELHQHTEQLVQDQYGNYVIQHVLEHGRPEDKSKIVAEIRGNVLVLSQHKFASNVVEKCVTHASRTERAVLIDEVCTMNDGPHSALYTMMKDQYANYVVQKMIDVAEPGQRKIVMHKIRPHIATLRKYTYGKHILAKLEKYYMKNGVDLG

[2] = biological target: T2, PUM1 PUF domain R3-GCW C935G + R936C + Q939W (Homo sapiens) (UniProt Q14671)
T2 sequence: T1 sequence with D108G, F109C, V112W

[3] = biological target: T3, PUM1 PUF domain R3-GPV C935G + R936P + Q939V (Homo sapiens) (UniProt Q14671)
T3 sequence: T1 sequence with D108G, F109P

[4] = biological target: T4, PUM1 PUF domain R3-GPY C935G + R936P + Q939Y (Homo sapiens) (UniProt Q14671)
T4 sequence: T1 sequence with D108G, F109P, V112Y

[5] = biological target: T5, PUM1 PUF domain R3-GRL C935G + Q939L (Homo sapiens) (UniProt Q14671)
T5 sequence: T1 sequence with D108G, F109R, V112L

[6] = biological target: T6, PUM1 PUF domain R3-GRW C935G + Q939W (Homo sapiens) (UniProt Q14671)
T6 sequence: T1 sequence with D108G, F109R, V112W

[7] = biological target: T7, PUM1 PUF domain R3-GYV C935G + R936Y + Q939V (Homo sapiens) (UniProt Q14671)
T7 sequence: T1 sequence with D108G, F109Y

[8] = biological target: T8, PUM1 PUF domain R3-KRG C935K + Q939G (Homo sapiens) (UniProt Q14671)
T8 sequence: T1 sequence with D108K, F109R, V112G

[9] = biological target: T9, PUM1 PUF domain R3-RAV C935R + R936A + Q939V (Homo sapiens) (UniProt Q14671)
T9 sequence: T1 sequence with D108R, F109A

[10] = biological target: T10, PUM1 PUF domain R3-RDR C935R + R936D + Q939R (Homo sapiens) (UniProt Q14671)
T10 sequence: T1 sequence with D108R, F109D, V112R

[11] = biological target: T11, PUM1 PUF domain R3-RRL C935R + Q939L (Homo sapiens) (UniProt Q14671)
T11 sequence: T1 sequence with D108R, F109R, V112L

[12] = biological target: T12, PUM1 PUF domain R3-RVT C935R + R936V + Q939T (Homo sapiens) (UniProt Q14671)
T12 sequence: T1 sequence with D108R, F109V, V112T

[13] = biological target: T13, PUM1 PUF domain R3-SWL C935S + R936W + Q939L (Homo sapiens) (UniProt Q14671)
T13 sequence: T1 sequence with D108S, F109W, V112L

[14] = biological target: T14, PUM1 PUF domain R3-VCQ C935V + R936C (Homo sapiens) (UniProt Q14671)
T14 sequence: T1 sequence with D108V, F109C, V112Q

[15] = biological target: T15, PUM1 PUF domain R3-VRT C935V + Q939T (Homo sapiens) (UniProt Q14671)
T15 sequence: T1 sequence with D108V, F109R, V112T

[16] = biological target: T16, PUM1 PUF domain R3-VRY C935V + Q939Y (Homo sapiens) (UniProt Q14671)
T16 sequence: T1 sequence with D108V, F109R, V112Y

[17] = biological target: T17, PUM1 PUF domain R3-APF C935A + R936P + Q939F (UniProt Q14671)
T17 sequence: T1 sequence with D108A, F109P, V112F

[18] = biological target: T18, PUM1 PUF domain R3-SSE C935S + R936S + Q939E (UniProt Q14671)
T18 sequence: T1 sequence with D108S, F109S, V112E

[19] = biological target: T19, PUM1 PUF domain R3-VRF C935V + Q939F (UniProt Q14671)
T19 sequence: T1 sequence with D108V, F109R, V112F

[20] = biological target: T20, PUM1 PUF domain R3-VRT C935V + Q939T (UniProt Q14671)
T20 sequence: T1 sequence with D108V, F109R, V112T

Row | Sequence | binding signal (log2 enrichment (interaction score)) [1] | binding signal (log2 enrichment (interaction score)) [2] | binding signal (log2 enrichment (interaction score)) [3] | binding signal (log2 enrichment (interaction score)) [4] | binding signal (log2 enrichment (interaction score)) [5] | binding signal (log2 enrichment (interaction score)) [6] | binding signal (log2 enrichment (interaction score)) [7] | binding signal (log2 enrichment (interaction score)) [8] | binding signal (log2 enrichment (interaction score)) [9] | binding signal (log2 enrichment (interaction score)) [10] | binding signal (log2 enrichment (interaction score)) [11] | binding signal (log2 enrichment (interaction score)) [12] | binding signal (log2 enrichment (interaction score)) [13] | binding signal (log2 enrichment (interaction score)) [14] | binding signal (log2 enrichment (interaction score)) [15] | binding signal (log2 enrichment (interaction score)) [16] | binding signal (log2 enrichment (interaction score)) [17] | binding signal (log2 enrichment (interaction score)) [18] | binding signal (log2 enrichment (interaction score)) [19] | binding signal (log2 enrichment (interaction score)) [20]
1 | GGCUAGAACUAGUGGAUCCCCCGGCGCCCGGCGGCUCGAGCCCGGGUAAGUGUAAGUAGUCUGCAUGCCGCCGGGCGCCAUGCCUGCAGGUCGACUCUAGAAAACAUG | -1.22 | -1.41 | -2.74 | -3.88 | -1.53 | -1.86 | -2.18 | -1.43 | -1.18 | -1.85 | -2.55 | -2.52 | -1.58 | -1.25 | -1.91 | -1.2 | – | – | – | –
2 | GGCUAGAACUAGUGGAUCCCCCGGCGCCCGGCGGCUCGAGCCCGGGUAAGUGUAAUUAGUCUGCAUGCCGCCGGGCGCCAUGCCUGCAGGUCGACUCUAGAAAACAUG | – | – | – | – | – | – | – | – | – | – | – | – | – | – | – | – | -3.41 | -2.61 | -2.85 | -3.42
